In patent US9403875B2 (UNIVERSITY OF SOUTHERN CALIFORNIA, priority 2009, dated 2016):

Experiment: peptide synthesis
Conditions: conjugation step, head-to-tail ring, sequence written open

Q: For AmBaSar-RGD, which conjugation yield (run 1) is on record?
A: Its conjugation yield is 80%.

Q: What about the conjugation yield (run 2) of the same substance?
A: The conjugation yield was “about 80%”.
